Measured values from the supplement of paper PMC10849652.
The other results are listed elsewhere or left out.

By UniProt entry, the sequences of proteins in these tests, tags left out. Where a name states a change or a piece, a line headed by the entry shows the natural chain unless it says otherwise.
UniProt Q99633: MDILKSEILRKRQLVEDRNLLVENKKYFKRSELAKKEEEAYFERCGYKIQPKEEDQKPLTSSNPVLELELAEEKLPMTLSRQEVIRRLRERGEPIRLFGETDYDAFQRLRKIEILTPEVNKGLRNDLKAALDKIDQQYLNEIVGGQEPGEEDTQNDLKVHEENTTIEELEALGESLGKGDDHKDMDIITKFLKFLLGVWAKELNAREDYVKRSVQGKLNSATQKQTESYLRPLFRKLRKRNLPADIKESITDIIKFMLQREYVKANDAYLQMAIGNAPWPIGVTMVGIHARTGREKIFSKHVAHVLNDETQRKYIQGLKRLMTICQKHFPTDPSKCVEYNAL
UniProt P63151: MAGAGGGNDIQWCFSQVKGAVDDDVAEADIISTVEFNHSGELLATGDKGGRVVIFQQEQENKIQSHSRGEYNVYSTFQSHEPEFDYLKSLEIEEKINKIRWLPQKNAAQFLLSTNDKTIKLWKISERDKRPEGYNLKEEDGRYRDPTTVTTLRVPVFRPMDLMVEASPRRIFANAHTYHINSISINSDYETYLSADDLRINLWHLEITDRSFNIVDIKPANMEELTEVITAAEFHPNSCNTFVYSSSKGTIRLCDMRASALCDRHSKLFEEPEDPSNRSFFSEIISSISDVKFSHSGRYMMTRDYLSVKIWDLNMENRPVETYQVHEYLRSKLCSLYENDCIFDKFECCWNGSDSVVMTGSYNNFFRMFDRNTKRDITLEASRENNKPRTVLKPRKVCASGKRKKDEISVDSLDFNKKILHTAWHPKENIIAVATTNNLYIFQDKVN
UniProt O15355: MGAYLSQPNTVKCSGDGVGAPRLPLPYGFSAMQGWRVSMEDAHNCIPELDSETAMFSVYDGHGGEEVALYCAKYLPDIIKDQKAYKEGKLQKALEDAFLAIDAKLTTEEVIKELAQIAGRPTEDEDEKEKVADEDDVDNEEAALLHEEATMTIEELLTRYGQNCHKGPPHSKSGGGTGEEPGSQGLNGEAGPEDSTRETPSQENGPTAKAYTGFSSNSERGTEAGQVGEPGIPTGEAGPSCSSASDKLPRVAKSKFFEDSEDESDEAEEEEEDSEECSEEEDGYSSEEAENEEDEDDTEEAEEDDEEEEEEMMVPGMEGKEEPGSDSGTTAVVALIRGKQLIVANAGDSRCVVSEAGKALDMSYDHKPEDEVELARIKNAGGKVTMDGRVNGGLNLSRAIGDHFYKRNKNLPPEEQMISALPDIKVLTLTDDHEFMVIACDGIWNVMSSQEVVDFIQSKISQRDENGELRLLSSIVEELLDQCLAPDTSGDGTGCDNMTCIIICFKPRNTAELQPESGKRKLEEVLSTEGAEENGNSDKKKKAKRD
UniProt Q13427: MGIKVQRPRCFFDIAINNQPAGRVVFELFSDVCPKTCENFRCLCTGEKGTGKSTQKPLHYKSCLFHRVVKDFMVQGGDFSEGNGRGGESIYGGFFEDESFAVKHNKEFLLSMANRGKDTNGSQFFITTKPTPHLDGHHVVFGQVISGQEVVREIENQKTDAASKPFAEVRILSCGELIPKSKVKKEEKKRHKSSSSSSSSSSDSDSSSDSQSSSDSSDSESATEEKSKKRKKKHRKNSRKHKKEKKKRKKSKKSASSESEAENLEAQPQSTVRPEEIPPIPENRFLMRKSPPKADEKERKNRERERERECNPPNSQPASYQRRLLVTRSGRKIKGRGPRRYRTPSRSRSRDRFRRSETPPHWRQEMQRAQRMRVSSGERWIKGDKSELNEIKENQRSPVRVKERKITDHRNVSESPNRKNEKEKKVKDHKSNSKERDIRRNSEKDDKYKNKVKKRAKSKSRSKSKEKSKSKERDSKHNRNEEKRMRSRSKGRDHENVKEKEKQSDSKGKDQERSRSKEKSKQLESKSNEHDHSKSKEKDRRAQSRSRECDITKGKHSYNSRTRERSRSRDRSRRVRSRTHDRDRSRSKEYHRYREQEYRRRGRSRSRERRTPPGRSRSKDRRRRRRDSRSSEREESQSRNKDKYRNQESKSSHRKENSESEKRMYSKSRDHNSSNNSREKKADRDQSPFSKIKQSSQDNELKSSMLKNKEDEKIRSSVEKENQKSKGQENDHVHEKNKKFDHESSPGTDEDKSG
UniProt Q5VTL8: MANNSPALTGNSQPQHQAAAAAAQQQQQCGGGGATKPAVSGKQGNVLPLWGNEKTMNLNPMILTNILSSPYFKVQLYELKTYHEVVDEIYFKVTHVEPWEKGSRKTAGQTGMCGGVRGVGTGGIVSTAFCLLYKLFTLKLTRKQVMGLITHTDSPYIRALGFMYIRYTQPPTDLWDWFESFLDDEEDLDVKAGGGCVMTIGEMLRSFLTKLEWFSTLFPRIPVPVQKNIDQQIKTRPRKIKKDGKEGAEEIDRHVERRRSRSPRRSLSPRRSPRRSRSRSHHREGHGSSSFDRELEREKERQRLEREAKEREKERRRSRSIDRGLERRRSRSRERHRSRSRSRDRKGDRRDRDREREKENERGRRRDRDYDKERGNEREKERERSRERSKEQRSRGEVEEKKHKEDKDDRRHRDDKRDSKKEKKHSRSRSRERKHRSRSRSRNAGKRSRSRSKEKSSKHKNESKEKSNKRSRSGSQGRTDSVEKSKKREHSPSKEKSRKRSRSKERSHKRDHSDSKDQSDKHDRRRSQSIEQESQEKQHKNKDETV
UniProt O94906: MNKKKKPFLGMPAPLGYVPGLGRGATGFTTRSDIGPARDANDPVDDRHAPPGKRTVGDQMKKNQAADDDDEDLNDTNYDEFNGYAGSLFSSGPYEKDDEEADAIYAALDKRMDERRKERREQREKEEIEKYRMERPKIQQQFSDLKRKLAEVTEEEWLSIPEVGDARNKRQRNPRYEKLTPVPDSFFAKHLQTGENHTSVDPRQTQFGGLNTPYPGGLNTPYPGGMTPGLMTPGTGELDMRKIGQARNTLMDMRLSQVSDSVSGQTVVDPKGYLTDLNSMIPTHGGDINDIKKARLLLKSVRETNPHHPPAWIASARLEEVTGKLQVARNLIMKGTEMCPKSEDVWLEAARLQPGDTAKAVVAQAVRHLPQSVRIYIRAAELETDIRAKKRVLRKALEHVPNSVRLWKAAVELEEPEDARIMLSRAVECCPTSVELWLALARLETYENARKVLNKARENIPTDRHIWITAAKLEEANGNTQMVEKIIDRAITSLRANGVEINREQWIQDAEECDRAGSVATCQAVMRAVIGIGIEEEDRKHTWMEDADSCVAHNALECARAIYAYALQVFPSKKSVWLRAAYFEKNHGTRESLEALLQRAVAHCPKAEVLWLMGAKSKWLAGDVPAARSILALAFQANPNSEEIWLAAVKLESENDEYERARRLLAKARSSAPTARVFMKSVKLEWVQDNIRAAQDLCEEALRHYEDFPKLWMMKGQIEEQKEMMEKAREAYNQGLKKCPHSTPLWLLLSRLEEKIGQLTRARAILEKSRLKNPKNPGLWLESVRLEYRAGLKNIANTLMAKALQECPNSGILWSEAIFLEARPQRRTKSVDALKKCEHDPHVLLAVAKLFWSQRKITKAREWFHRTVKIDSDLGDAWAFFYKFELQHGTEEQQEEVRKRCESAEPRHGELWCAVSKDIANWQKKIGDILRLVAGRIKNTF
UniProt Q9H2H8: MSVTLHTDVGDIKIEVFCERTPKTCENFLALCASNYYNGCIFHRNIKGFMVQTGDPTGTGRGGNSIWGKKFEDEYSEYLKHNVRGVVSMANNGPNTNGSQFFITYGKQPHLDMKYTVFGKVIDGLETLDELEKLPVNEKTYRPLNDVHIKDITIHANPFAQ
UniProt P54619: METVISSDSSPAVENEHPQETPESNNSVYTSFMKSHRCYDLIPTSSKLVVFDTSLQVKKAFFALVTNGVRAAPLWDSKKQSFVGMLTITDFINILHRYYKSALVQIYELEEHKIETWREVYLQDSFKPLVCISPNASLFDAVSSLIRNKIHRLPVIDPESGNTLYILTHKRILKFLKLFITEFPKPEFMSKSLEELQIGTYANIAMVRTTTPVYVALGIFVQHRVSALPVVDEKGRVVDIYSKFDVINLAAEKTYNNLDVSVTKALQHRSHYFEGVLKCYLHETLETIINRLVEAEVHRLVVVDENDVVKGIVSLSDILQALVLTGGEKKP
UniProt Q96QC0: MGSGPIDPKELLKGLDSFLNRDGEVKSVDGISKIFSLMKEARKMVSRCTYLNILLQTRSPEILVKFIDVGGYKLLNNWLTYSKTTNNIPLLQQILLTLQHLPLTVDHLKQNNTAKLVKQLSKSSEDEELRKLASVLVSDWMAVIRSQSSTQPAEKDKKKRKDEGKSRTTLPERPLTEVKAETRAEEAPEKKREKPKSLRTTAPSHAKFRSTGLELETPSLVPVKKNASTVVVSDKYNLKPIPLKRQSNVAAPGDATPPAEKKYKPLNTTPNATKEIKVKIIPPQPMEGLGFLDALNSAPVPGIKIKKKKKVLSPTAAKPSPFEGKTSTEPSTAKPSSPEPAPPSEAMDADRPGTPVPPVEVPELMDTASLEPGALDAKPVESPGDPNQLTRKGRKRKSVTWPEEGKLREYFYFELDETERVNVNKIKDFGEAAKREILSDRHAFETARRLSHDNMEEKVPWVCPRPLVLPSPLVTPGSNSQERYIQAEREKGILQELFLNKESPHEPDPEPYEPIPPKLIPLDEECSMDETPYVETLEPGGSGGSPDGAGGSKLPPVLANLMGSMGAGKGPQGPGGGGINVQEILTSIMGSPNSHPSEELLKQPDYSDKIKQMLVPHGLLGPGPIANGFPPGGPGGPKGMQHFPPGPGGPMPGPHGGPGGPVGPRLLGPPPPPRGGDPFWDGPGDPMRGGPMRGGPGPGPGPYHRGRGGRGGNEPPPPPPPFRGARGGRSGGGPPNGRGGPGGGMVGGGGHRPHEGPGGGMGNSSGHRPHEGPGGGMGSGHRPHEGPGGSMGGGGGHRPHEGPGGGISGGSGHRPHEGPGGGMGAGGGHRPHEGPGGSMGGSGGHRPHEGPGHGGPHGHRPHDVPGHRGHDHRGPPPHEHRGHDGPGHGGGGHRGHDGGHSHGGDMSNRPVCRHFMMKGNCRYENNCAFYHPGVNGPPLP
UniProt Q13362, whole entry, looked up: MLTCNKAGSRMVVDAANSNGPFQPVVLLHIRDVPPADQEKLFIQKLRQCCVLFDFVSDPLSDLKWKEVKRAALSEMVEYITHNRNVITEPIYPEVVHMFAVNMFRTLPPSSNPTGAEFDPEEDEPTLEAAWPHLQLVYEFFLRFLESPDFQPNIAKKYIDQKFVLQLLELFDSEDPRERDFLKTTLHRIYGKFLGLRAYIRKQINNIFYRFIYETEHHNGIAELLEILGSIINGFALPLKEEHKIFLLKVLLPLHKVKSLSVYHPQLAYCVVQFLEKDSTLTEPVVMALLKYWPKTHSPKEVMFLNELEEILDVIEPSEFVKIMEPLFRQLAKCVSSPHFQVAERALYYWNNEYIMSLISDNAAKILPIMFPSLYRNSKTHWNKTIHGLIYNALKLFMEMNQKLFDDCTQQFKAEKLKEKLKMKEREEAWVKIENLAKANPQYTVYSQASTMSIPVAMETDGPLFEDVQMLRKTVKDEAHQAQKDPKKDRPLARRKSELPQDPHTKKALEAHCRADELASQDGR
UniProt P49643: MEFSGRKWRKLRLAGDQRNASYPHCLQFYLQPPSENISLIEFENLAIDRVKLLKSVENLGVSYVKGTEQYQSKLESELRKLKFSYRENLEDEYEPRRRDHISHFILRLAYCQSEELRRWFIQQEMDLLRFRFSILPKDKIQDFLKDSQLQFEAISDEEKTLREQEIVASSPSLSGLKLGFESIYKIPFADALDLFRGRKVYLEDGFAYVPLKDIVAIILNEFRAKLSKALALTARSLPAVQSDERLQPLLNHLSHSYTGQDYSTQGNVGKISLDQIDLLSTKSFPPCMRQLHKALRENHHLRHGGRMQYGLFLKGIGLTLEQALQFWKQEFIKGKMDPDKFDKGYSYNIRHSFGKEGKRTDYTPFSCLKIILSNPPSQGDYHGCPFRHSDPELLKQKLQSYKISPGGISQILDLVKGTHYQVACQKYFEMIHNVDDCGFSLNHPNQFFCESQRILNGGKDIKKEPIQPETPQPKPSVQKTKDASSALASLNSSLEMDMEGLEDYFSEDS
UniProt P42785: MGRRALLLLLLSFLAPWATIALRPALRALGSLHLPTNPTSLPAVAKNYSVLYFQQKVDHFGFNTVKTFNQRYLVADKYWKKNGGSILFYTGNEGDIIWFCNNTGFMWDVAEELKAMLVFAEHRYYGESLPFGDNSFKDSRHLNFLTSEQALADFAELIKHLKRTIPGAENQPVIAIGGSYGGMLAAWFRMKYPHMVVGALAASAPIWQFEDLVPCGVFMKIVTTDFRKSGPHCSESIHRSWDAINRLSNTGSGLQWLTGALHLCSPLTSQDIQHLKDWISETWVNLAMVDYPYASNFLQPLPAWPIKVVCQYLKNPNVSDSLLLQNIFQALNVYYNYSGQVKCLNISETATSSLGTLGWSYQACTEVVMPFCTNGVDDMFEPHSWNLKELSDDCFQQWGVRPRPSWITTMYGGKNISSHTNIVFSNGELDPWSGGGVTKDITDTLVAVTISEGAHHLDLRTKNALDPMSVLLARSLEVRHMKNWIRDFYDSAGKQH

How the values were obtained:
Assay in all cases: log2 fold change, soluble protein after heating vs DMSO (PISA); higher = thermal stabilisation; K562 lysate, 10 uM; active = over 0.2 and 3.5 SD of the protein, either way, in both replicates (recomputed)
[1] = compound: C#Cc1cccc(Nc2ncnc3cc(OCCOC)c(OCCOC)cc23)c1 [erlotinib]
Procedure, shortened: (§1)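 Quantification was by TMTpro 16plex LC-MS/MS with equalised channel sums, applied to the supernatant after 21,000xg for 90 min. Samples were crude K562 extract at 1 mg/mL protein in PBS pH 7.4 with 1 mM MgCl2, treated with 10 μM compound for 30 min, heated for 3 min across 48°C-58°C, pooled and brought to 0.5% NP-40 at 4°C. Values are log-two fold changes in thermal stability relative to solvent controls, from duplicates.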

[2] = compound: C/C(=N\NC(=O)C1=CC(=CC=C1)S(=O)(=O)N2CCOCC2)/C3=C(C=CC(=C3)Cl)O
Procedure, shortened: as §1

[3] = compound: C1=CC(=CC=C1C2=NC3=C(N2)C=C(C=C3)C(=O)N)OC4=CC=C(C=C4)Cl
Procedure, shortened: as §1

[4] = compound: C1=CC2=C(C=CC(=C2)/C=C\3/C(=O)NC(=NCC4=CC=CS4)S3)N=C1
Procedure, shortened: as §1

[5] = compound: C1=CC2=NC=CN=C2C=C1/C=C/3\C(=O)NC(=O)S3
Procedure, shortened: as §1

[6] = compound: C1=CC=C(C=C1)C2=NC(=C(N2)C3=CC=NC=C3)C4=CC(=C(C=C4)Cl)O
Procedure, shortened: as §1

[7] = compound: C1=CC=C2C(=C1)C3=NNC4=CC=CC(=C43)C2=O
Procedure, shortened: as §1

[8] = compound: C1CCN(C1)C(=O)NC2=CC=CC(=C2)NC3=NC=C(C(=N3)NCCC4=CN=CN4)Br
Procedure, shortened: as §1

[9] = compound: C1CN(CCC1(CC2=CC=C(C=C2)Cl)N)C3=NC=NC4=C3C=CN4
Procedure, shortened: as §1

[10] = compound: C1COCCN1CCN2C3=CC=CC=C3N=C2NC(=O)C4=CC(=CC=C4)[N+](=O)[O-] [IRAK-1-4 Inhibitor I]
Procedure, shortened: as §1

[11] = compound: C=CC(=O)N1CCC[C@@H](n2nc(-c3ccc(Oc4ccccc4)cc3)c3c(N)ncnc32)C1 [ibrutinib]
Procedure, shortened: as §1

[12] = compound: CC(=O)c1cnc2ccc(-c3cc(Cl)c(O)c(Cl)c3)nc2c1N[C@H]1CC[C@H](CN(C)C)CC1
Procedure, shortened: as §1

[13] = compound: CC(C)(C)Cn1c(N)nc2ccc(-c3[nH]c(C(C)(C)C)nc3-c3ccc(F)cc3)nc21 [ralimetinib]
Procedure, shortened: as §1

[14] = compound: CC(C)(O)CC(=O)NCCn1ccc2ncnc(Nc3ccc(Oc4cccc(C(F)(F)F)c4)c(Cl)c3)c21
Procedure, shortened: as §1

[15] = compound: CC(C)C1=C2N=C(C=C(N2N=C1)NCC3=CC=CC=C3)NCCCCCCN
Procedure, shortened: as §1

[16] = compound: CC1=C(C(CC(=O)N1)C2=CC=C(C=C2)C(F)(F)F)C(=O)NC3=C(C=C4C(=C3)C=NN4)F
Procedure, shortened: as §1

[17] = compound: CC1=C(C2=C(C=C1)C(=O)C3=CC=CC=C3N2CCCN)C
Procedure, shortened: as §1

[18] = compound: CC1=C(C=C(C=C1)NC(=O)C2=CC(=CC=C2)C(C)(C)C#N)NC3=CC4=C(C=C3)N=CN(C4=O)C
Procedure, shortened: as §1

[19] = compound: CC1=C(C=C(C=C1)NC(=O)C2=CC(=CC=C2)N(C)C)NC(=O)C3=CC=C(C=C3)O
Procedure, shortened: as §1

[20] = compound: CC1=CC=C(C=C1)SC2=C3C=C(SC3=CN=C2)C(=O)N
Procedure, shortened: as §1

Measured: log2 fold change

PRPF18 (UniProt Q99633)
inactive: [1] -0.048 | [2] 0.049 | [3] 0.081 | [4] 0.024 | [5] -0.053 | [6] 0.023 | [7] -0.094 | [8] 0.018 | [9] 0.067 | [10] -0.004 | [11] 0.021 | [12] -0.021 | [13] -0.035 | [14] 0.007 | [15] 0.002 | [16] -0.008 | [17] -0.018 | [18] 0.139 | [19] -0.026 | [20] -0.009

PPP2R2A isoform 2 (UniProt P63151)
inactive: [1] -0.003 | [2] -0.033 | [3] 0.023 | [4] 0.002 | [5] -0.006 | [6] -0.016 | [7] -0.007 | [8] 0.005 | [9] 0.003 | [10] 0.024 | [11] 0.01 | [12] -0.003 | [13] 0.013 | [14] -0.051 | [15] 0.005 | [16] -0.013 | [17] 0.001 | [18] -0.006 | [19] -0.015 | [20] -0.016

PPM1G (UniProt O15355)
inactive: [1] -0.012 | [2] -0.011 | [3] 0.017 | [4] 0.02 | [5] 0 | [6] 0.003 | [7] 0.036 | [8] 0.013 | [9] -0.013 | [10] -0.016 | [11] -0.006 | [12] 0.017 | [13] 0.009 | [14] 0.024 | [15] -0.018 | [16] -0.007 | [17] 0 | [18] -0.018 | [19] 0 | [20] -0.007

PRAME (UniProt P78395)
inactive: [1] 0.02 | [2] -0.056 | [3] -0.001 | [4] -0.027 | [5] -0.037 | [6] 0.013 | [7] -0.043 | [8] -0.004 | [9] 0.007 | [10] -0.008 | [11] 0.009 | [12] 0.029 | [13] 0.003 | [14] 0.005 | [15] 0.011 | [16] 0.015 | [17] 0.003 | [18] 0.006 | [19] 0.008 | [20] 0.002

PPIG (UniProt Q13427)
inactive: [1] -0.007 | [2] -0.011 | [3] 0.082 | [4] -0.007 | [5] -0.047 | [6] -0.064 | [7] -0.05 | [8] -0.005 | [9] 0.047 | [10] -0.05 | [11] -0.045 | [12] -0.022 | [13] 0.036 | [14] 0.06 | [15] 0.009 | [16] 0.055 | [17] -0.051 | [18] 0.05 | [19] 0.056 | [20] 0.013

PRPF38B (UniProt Q5VTL8)
inactive: [1] 0.053 | [2] 0.021 | [3] 0.017 | [4] 0.027 | [5] -0.031 | [6] 0.025 | [7] 0.013 | [8] 0.021 | [9] 0.021 | [10] -0.028 | [11] -0.011 | [12] 0.001 | [13] 0.041 | [14] -0.017 | [15] 0.027 | [16] -0.016 | [17] -0.006 | [18] -0.002 | [19] -0.006 | [20] 0.017

PRPF6 (UniProt O94906)
inactive: [1] 0.018 | [2] 0.038 | [3] -0.003 | [4] -0.035 | [5] 0.001 | [6] 0.037 | [7] -0.018 | [8] -0.056 | [9] -0.032 | [10] -0.046 | [11] 0 | [12] 0 | [13] 0.038 | [14] 0.022 | [15] 0.005 | [16] -0.008 | [17] 0.001 | [18] -0.022 | [19] 0.053 | [20] 0.007

PPIL3 (UniProt Q9H2H8)
inactive: [1] 0.022 | [2] 0.071 | [3] 0 | [4] -0.016 | [5] -0.039 | [6] -0.012 | [7] -0.028 | [8] -0.004 | [9] 0.071 | [10] 0.03 | [11] 0.044 | [12] 0.029 | [13] -0.023 | [14] -0.028 | [15] 0.022 | [16] 0.001 | [17] 0.003 | [18] 0.011 | [19] 0.009 | [20] 0.005

PRKAG1 (UniProt P54619)
inactive: [1] -0.043 | [2] -0.045 | [3] -0.024 | [4] -0.001 | [5] -0.021 | [6] 0.013 | [7] 0.092 | [8] 0.158 | [9] 0.05 | [10] 0.131 | [11] 0.037 | [12] 0.036 | [13] -0.016 | [14] -0.025 | [15] -0.045 | [16] -0.025 | [17] -0.01 | [18] 0.002 | [19] -0.006 | [20] -0.006

PPP1R10 (UniProt Q96QC0)
inactive: [1] -0.021 | [2] 0.01 | [3] 0.054 | [4] 0 | [5] -0.006 | [6] 0.011 | [7] 0.002 | [8] 0.022 | [9] 0.027 | [10] 0.01 | [11] 0.012 | [12] 0.031 | [13] 0.02 | [14] -0.032 | [15] 0.018 | [16] 0.044 | [17] -0.009 | [18] 0.021 | [19] 0.001 | [20] 0.029

Pulled one by one from the list above (2):
PRKAG1 (UniProt P54619)
inactive: [1] -0.043 | [2] -0.045 | [3] -0.024 | [4] -0.001 | [5] -0.021 | [6] 0.013 | [7] 0.092 | [8] 0.158 | [9] 0.05 | [10] 0.131 | [11] 0.037 | [12] 0.036 | [13] -0.016 | [14] -0.025 | [15] -0.045 | [16] -0.025 | [17] -0.01 | [18] 0.002 | [19] -0.006 | [20] -0.006

PPP1R10 (UniProt Q96QC0)
inactive: [1] -0.021 | [2] 0.01 | [3] 0.054 | [4] 0 | [5] -0.006 | [6] 0.011 | [7] 0.002 | [8] 0.022 | [9] 0.027 | [10] 0.01 | [11] 0.012 | [12] 0.031 | [13] 0.02 | [14] -0.032 | [15] 0.018 | [16] 0.044 | [17] -0.009 | [18] 0.021 | [19] 0.001 | [20] 0.029

(list continues)

PPP2R5C isoform 5 (UniProt Q13362)
inactive: [1] -0.013 | [2] -0.025 | [3] -0.009 | [4] -0.025 | [5] 0.016 | [6] -0.002 | [7] -0.039 | [8] 0.01 | [9] 0.027 | [10] 0.013 | [11] -0.002 | [12] 0.012 | [13] -0.021 | [14] -0.036 | [15] -0.037 | [16] -0.038 | [17] 0.02 | [18] 0.002 | [19] 0.014 | [20] 0.037

PRKD2 isoform 3 (UniProt Q9BZL6)
inactive: [1] 0.085 | [2] -0.047 | [3] 0.031 | [4] -0.112 | [5] 0.028 | [6] 0.014 | [7] -0.037 | [8] -0.175 | [9] -0.009 | [10] 0.021 | [11] 0.026 | [12] -0.065 | [13] 0.019 | [14] -0.122 | [15] 0.045 | [16] 0.04 | [17] -0.111 | [18] -0.034 | [19] 0.046 | [20] 0.007

PRIM2 (UniProt P49643)
inactive: [1] 0.05 | [2] -0.12 | [3] 0.032 | [4] 0.007 | [5] -0.006 | [6] 0.011 | [7] 0.005 | [8] -0.016 | [9] 0.017 | [10] 0.027 | [11] 0.067 | [12] -0.05 | [13] 0.041 | [14] -0.025 | [15] -0.001 | [16] 0.015 | [17] -0.043 | [18] 0.028 | [19] 0.054 | [20] 0.009

PREPL (UniProt Q4J6C6)
inactive: [1] -0.002 | [2] -0.054 | [3] -0.002 | [4] 0 | [5] -0.031 | [6] -0.005 | [7] -0.001 | [8] -0.025 | [9] 0.018 | [10] -0.024 | [11] 0.033 | [12] -0.009 | [13] -0.006 | [14] -0.027 | [15] -0.02 | [16] 0.029 | [17] 0.002 | [18] 0.001 | [19] 0 | [20] 0.009

PRCP (UniProt P42785)
inactive: [1] 0.003 | [2] -0.031 | [3] -0.016 | [4] 0.011 | [5] 0.031 | [6] -0.001 | [7] 0.024 | [8] -0.025 | [9] 0 | [10] 0.043 | [11] 0.016 | [12] 0.017 | [13] -0.058 | [14] -0.099 | [15] -0.02 | [16] 0.033 | [17] 0.001 | [18] -0.002 | [19] -0.011 | [20] 0.016

PRMT9 (UniProt Q6P2P2)
inactive: [1] 0.003 | [2] -0.001 | [3] 0.003 | [4] 0.027 | [5] -0.001 | [6] 0.029 | [7] 0.026 | [8] -0.005 | [9] -0.017 | [10] -0.004 | [11] 0.036 | [12] -0.002 | [13] -0.007 | [14] -0.02 | [15] -0.016 | [16] 0.002 | [17] 0.017 | [18] -0.01 | [19] 0 | [20] 0.002
